The entries are a selection whose mix differs from that of the whole data set. The calls were merged from several studies; some rest on single wells. The list shows a part of the results.
Legend:
Details in all cases: stereoisomer not certain
[1] = target: T1, UniProt Q8VGU3
T1 sequence (whole entry): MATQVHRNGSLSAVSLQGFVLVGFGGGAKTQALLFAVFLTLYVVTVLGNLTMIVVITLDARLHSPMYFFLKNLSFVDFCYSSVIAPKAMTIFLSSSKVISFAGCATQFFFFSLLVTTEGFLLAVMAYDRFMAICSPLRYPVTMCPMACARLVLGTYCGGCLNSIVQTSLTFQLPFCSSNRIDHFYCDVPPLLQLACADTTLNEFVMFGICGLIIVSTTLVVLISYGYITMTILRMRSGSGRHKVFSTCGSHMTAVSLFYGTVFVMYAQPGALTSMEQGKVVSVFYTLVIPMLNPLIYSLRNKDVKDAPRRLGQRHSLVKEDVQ
How it was run: (§1)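 Each receptor–molecule pair is labelled responsive or non-responsive (inactive) according to whether the original authors judged the measured signal statistically different from baseline. The data were taken from the main text and supplementary material of published papers and checked for typos and inconsistencies. Assay methods differed by source, with transient luciferase assays in mammalian cell lines being common.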

[2] = target: T2, UniProt Q8VGV7
T2 sequence (whole entry): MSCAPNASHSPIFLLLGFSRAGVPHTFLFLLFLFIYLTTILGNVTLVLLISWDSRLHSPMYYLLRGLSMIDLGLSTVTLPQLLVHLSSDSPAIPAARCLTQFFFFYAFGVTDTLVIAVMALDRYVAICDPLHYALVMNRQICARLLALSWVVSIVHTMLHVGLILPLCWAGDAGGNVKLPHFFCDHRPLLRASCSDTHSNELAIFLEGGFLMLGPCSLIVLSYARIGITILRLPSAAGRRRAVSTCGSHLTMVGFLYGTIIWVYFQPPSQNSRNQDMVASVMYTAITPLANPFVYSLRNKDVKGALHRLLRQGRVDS
How it was run: as §1

[3] = target: T3, UniProt Q8VGW5
T3 sequence (whole entry): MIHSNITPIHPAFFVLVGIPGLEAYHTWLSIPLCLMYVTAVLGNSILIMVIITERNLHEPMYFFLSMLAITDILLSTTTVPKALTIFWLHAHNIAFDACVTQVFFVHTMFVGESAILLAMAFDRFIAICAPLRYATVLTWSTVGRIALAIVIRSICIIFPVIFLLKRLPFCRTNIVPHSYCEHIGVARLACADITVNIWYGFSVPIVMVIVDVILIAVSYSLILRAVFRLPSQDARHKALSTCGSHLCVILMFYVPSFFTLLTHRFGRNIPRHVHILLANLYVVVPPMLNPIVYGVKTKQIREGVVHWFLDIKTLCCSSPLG
How it was run: as §1

[4] = target: T4, UniProt Q8VGX3
T4 sequence (whole entry): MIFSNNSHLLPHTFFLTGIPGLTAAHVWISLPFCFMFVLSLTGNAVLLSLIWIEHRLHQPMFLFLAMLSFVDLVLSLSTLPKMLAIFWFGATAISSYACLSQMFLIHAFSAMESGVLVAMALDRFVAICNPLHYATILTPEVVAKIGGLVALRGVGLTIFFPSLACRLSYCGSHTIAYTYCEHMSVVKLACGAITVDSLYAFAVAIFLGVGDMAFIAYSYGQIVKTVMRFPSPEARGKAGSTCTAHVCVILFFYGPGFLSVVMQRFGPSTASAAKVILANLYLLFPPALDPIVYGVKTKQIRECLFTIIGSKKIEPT
How it was run: as §1

[5] = target: T5, UniProt Q8VGX5
T5 sequence (whole entry): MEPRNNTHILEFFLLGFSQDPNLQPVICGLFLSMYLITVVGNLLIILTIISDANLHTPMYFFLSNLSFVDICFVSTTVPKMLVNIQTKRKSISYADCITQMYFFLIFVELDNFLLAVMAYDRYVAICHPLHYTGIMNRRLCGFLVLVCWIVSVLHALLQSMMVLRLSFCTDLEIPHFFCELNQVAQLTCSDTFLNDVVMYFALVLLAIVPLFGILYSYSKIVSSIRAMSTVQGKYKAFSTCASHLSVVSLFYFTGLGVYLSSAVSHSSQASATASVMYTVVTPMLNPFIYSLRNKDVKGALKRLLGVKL
How it was run: as §1

[6] = target: T6, UniProt Q8VGZ2
T6 sequence (whole entry): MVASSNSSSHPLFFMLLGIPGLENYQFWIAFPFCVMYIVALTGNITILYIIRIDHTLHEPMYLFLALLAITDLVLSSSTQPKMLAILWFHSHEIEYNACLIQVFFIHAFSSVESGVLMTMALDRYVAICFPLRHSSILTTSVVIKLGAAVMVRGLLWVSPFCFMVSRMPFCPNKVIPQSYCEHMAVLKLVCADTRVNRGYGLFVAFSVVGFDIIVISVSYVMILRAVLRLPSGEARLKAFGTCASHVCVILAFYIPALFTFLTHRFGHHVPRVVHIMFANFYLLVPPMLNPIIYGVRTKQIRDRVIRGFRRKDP
How it was run: as §1

[7] = target: T7, UniProt Q8VGZ7
T7 sequence (whole entry): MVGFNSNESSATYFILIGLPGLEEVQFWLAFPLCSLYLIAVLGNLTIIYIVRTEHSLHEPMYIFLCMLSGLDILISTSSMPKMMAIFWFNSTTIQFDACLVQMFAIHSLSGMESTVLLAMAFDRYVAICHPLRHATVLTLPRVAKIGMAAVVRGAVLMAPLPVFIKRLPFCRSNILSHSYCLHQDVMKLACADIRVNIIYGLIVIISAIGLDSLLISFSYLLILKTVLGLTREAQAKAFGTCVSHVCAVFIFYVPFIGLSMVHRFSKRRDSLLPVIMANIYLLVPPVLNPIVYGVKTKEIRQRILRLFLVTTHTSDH
How it was run: as §1

[8] = target: T8, UniProt Q8VH16
T8 sequence (whole entry): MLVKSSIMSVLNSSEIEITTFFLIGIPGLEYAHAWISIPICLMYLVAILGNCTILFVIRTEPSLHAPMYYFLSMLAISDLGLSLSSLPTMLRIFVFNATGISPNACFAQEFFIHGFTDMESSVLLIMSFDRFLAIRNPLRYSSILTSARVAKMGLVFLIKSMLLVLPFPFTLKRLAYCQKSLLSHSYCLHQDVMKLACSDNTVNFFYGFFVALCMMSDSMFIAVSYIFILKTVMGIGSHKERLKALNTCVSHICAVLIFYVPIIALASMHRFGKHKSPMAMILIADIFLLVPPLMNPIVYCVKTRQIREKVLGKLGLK
How it was run: as §1

[9] = target: T9, UniProt Q8VH18
T9 sequence (whole entry): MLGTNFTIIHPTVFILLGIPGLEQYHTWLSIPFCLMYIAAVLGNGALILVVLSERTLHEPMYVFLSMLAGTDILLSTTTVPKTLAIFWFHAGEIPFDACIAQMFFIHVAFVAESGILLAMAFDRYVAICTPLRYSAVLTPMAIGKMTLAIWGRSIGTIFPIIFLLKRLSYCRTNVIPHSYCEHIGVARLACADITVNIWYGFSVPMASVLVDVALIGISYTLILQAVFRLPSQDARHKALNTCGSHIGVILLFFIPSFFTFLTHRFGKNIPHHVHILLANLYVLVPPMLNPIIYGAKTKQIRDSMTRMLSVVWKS
How it was run: as §1

[10] = target: T10, UniProt Q8VH20
T10 sequence (whole entry): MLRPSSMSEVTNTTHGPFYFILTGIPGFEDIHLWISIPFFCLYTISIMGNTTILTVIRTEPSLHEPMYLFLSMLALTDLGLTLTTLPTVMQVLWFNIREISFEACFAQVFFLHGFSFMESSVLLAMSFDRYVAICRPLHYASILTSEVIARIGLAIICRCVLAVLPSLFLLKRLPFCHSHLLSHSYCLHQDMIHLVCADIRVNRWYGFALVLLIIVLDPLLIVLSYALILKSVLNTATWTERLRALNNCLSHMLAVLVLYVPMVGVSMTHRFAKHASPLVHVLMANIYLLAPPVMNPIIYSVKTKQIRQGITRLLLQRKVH
How it was run: as §1

[11] = target: T11, UniProt Q8VH21
T11 sequence (whole entry): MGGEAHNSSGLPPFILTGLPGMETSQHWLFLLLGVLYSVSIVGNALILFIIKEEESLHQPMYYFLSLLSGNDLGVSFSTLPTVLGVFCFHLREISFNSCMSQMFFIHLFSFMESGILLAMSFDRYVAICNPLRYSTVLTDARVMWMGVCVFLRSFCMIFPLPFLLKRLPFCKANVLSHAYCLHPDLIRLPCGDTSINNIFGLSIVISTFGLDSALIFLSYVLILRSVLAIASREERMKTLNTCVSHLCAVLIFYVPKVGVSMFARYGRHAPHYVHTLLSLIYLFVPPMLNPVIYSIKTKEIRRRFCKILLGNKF
How it was run: as §1

[12] = target: T12, UniProt Q924H8
T12 sequence (whole entry): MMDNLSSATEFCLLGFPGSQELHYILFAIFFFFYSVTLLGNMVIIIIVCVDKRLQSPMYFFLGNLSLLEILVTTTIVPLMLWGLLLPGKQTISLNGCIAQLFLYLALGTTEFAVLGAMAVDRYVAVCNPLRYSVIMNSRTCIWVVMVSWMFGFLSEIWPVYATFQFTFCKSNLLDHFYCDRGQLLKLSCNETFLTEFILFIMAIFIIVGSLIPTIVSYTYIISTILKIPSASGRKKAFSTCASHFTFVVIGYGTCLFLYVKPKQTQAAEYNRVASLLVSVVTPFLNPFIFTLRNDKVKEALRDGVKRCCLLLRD
How it was run: as §1

[13] = target: T13, UniProt Q920P1
T13 sequence (whole entry): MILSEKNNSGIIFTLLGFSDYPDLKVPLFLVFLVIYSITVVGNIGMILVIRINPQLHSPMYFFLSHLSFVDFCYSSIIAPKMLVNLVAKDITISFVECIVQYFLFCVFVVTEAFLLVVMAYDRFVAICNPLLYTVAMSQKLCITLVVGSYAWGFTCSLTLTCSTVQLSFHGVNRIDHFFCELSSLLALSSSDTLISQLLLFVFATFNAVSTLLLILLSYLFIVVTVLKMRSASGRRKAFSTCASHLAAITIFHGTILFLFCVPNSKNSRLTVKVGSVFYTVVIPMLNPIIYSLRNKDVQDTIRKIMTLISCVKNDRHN
How it was run: as §1

Measured: odorant receptor agonist call

CC(C)CC(=O)O
active: [3]
not listed: [13]
inactive: all other assays above

C=CCc1ccc(OC(C)=O)c(OC)c1
inactive: [13]
